The target in the test is FRMPD2 (mouse (endogenous in hippocampus)). In words: co-IP.

Amino acid sequences for entries named in this document (tags omitted). Residues count along the entry.
UniProt Q01097, residues 27-1482: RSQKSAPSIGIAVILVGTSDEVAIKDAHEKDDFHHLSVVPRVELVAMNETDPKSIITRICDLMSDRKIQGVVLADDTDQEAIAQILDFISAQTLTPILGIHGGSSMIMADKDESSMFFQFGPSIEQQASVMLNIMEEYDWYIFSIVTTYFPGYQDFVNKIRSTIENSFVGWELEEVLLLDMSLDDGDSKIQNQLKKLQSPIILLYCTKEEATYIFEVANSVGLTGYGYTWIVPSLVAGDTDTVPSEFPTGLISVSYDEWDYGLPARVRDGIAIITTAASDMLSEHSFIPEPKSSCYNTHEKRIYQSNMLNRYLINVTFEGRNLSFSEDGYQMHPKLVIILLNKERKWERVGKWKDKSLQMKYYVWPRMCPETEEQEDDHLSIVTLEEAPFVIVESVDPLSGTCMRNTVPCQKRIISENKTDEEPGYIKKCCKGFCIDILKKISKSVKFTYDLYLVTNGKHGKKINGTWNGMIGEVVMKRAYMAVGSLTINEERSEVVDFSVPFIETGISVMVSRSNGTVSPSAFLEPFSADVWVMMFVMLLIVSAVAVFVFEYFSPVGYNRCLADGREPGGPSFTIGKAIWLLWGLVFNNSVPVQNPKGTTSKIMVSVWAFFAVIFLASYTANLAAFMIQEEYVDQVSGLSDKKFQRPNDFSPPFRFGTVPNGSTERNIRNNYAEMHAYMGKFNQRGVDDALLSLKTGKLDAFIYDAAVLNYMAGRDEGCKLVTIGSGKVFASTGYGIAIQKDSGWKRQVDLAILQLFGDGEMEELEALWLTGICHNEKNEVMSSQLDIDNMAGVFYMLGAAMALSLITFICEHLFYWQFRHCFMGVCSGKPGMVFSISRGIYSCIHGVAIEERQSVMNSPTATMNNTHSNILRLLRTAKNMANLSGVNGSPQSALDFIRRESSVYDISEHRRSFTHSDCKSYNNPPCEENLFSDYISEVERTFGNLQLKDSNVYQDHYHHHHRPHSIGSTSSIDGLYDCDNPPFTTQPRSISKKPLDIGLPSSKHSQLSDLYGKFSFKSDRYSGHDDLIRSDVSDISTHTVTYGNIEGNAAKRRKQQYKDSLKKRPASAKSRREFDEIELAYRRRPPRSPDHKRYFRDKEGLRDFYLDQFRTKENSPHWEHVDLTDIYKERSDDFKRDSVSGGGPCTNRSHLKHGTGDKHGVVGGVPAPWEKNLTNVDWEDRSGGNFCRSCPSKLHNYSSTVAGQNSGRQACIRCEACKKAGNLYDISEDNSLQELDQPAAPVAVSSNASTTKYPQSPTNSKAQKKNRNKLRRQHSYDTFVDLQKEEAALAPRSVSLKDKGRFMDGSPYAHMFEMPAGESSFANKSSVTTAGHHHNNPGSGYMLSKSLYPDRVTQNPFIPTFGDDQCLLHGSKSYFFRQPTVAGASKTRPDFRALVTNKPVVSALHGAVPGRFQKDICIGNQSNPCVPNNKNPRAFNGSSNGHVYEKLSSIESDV

Drawing on article doi:10.1101/403360, this text covers binding for two substances.

These are yes or no findings as the source states them, for the method shown. In cells and extracts the contact can be indirect. Some binding calls cover weakened binding; strength is not graded here.

As for “GluN2A, NMDA receptor subunit (endogenous) (from UniProt P35436 23-1464)”, the binding entry was “binds”.

With “GluN2B, NMDA receptor subunit (endogenous) (from UniProt Q01097 27-1482)”, the binding entry is listed as “binds”.
